In PMC2572843:
Results are given in words; binding and its absence hold for the method and conditions named. Binding can be weak; no strength is given.

Amino acid sequences for entries named in this document (tags omitted). A change or cut given only in a name is not applied to a line headed by its entry.
UniProt Q03048: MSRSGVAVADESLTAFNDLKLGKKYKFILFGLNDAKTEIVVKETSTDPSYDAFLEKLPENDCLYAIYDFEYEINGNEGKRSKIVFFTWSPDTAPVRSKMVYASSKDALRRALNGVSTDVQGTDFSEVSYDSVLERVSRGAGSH

Biological target: yeast tropomyosin Tpm1 (recombinant) (S. cerevisiae) (UniProt P17536)
Assay: pull-down; beads coated with Tpm1 or BSA incubated with 50 nM Cof1, Cof1-5 or Cof1-22; bound cofilin shown by immunoblot with yeast cofilin antibody; both purified

yeast cofilin mutant Cof1-5 (from UniProt Q03048)
binding: binds
